A short description of the assay: qHTS Assay to Find Inhibitors of Chronic Active B-Cell Receptor Signaling. Conditions: ABC-DLBCL IkBa-CBG/CBR reporter, luminescence ratio (green luciferase fused to IkBa over red control in TMD8 lymphoma cells), 4 h. The method in brief: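 Cell line TMD8 (human ABC DLBCL), stably expressing tet-inducible CBG68-IkBa fusion and CBR; IMDM/0.5% FBS; cpd up to 46 uM; dox induction, 4 h, 37C/5% CO2; dual luminescence; green/red ratio; MG132 control.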
A general note: Quantitative high-throughput screening tests each substance at several concentrations.

The mark [1] stands for this setting: measured here: CBR red luminescence, cell number.
[2] abbreviates: measured here: IkBa-CBG green luminescence.

The list shows a part of the results. Further columns of the screen follow, without active or inactive calls. The list favours compounds with an active or inconclusive main result. Potencies come from curve fits of mixed quality, noted in brackets.

The term AC50 denotes the midpoint of the concentration-response curve, whichever way the signal moves.

Turning to `CCn1c(SCC(=O)Nc2cccc(OC)c2)nc2ccccc2c1=O`, under setting [1], the AC50 was 0.501 µM [falling, full curve].

For `COc1ccc(CCNc2nc(SCc3ccc(F)cc3)nc3ccccc23)cc1OC`, under setting [1], the concentration at half-maximal activity (AC50) is 10 µM [falling, partial curve, poor fit].

In the case of `CCc1nn(CC(=O)N2CCN(c3cc(C)ccc3C)CC2)c(=O)c2cc3occc3n12`, under setting [1], the AC50 is 5.62 µM [rising, single point].

With `COc1ccc(CCNS(=O)(=O)c2ccc(Br)cc2)cc1`, the half-maximal activity concentration (AC50) under setting [1] was 0.631 µM [rising, full curve].

Take `Cc1cc(=O)[nH]c2nnc(SCC(=O)Nc3ccc(F)cc3F)n12`: under setting [1], the AC50 is 3.16 µM [falling, single point].

With `Cc1cc(Nc2cccc(C(=O)O)c2)n2ncnc2n1`, the AC50 under setting [1] is 11.2 µM [falling, partial curve].

Consider `N#Cc1c2n(c(=S)n(-c3ccc(F)cc3)c1=O)CCCCC2`, for which the AC50 under setting [1] was 0.891 µM [falling, full curve].

Turning to `Cc1[nH]nc2c1C(c1ccsc1C)C(C#N)=C(N)O2` (configuration not stated), the AC50 under setting [1] is 16.4 µM [falling, single point].

Turning to `Cn1c(/C=N/NC(=O)c2ccccc2Br)nc2ccccc21`, the concentration at half-maximal activity (AC50) under setting [1] was 15.8 µM [falling, partial curve, poor fit].

For the molecule `CCOC(=O)COc1cccc2c(=O)n(CC(=O)NCc3ccccc3)ccc12`, the half-maximal activity concentration (AC50) was 8.91 µM [rising, partial curve] under setting [1] and 10 µM [falling, partial curve] under setting [2].

As to `CCCSc1ccc(C(=O)Nc2ccc(Cl)cc2)cn1`, the AC50 under setting [1] was 3.98 µM [falling, partial curve, poor fit].

On to `CC(C)NC(=O)CC(=O)N/N=C/c1ccccc1F`, for which the concentration at half-maximal activity (AC50) under setting [1] was 5.01 µM [rising, single point].

Consider `COc1ccc(NC(=O)Nc2ccc(Br)cn2)cc1`, for which the concentration at half-maximal activity (AC50) under setting [1] was 1.58 µM [rising, full curve, poor fit].

Turning to `O=C1N/C(=C/c2cccn2-c2ccc(F)cc2)C(=O)N1Cc1ccccc1`, the AC50 under setting [1] is 16.4 µM [rising, partial curve, poor fit].

`Cc1cccc(C)c1OCC(=O)N1CC2(C)CC1CC(C)(C)C2` (configuration not stated): the AC50 under setting [1] was 23.1 µM [rising, single point].

With `CN(C)c1ccc(NC(=O)CSc2nc3ccccc3c(=O)n2C2CCCCC2)cc1`, under setting [1], the concentration at half-maximal activity (AC50) is 6.31 µM [rising, single point].

As for `CCN1CCCC1CNC(=O)c1cc2c(=O)n(C)c3ccccc3c2n1C` (configuration not stated), the concentration at half-maximal activity (AC50) under setting [1] is 0.146 µM [falling, full curve, poor fit].

On to `Cc1sc(NC(=O)C2CCCC2)c(C#N)c1C`, for which the half-maximal activity concentration (AC50) under setting [1] is 20.6 µM [rising, single point].

On to `Cc1cc(C(=O)Nc2ccccc2C(=O)O)ccc1NC(=O)COc1cccc([N+](=O)[O-])c1`, for which the AC50 under setting [1] is 0.891 µM [falling, full curve, poor fit].

On to `Cn1c(-c2sccc2OCc2ccc(Cl)cc2Cl)n[nH]c1=S`, for which the AC50 under setting [1] is 35.5 µM [falling, single point].

`CCN(CC)c1ccc(/C=N/n2c(C)nc3ccccc3c2=O)cc1`: the AC50 under setting [1] was 25.1 µM [falling, single point].

For `CCOc1ccccc1N(CC(=O)NC1CCCCC1)C(=O)CCCC(=O)Nc1ccccn1`, the AC50 under setting [1] was 12.6 µM [falling, partial curve].

On to `Cc1ccc(C(=O)NCC(=O)OCC(=O)c2ccccc2)s1`, for which, under setting [1], the AC50 is 1.3 µM [rising, full curve, poor fit].

Take `CC(=O)c1sc(NC(=O)CSC(C)C(=O)Nc2cc(C)on2)nc1-c1ccccc1` (configuration not stated): the AC50 under setting [1] is 29.1 µM [falling, single point].

Take `CC1C(=O)C(C)C(c2cc(Cl)ccc2O)NC1c1cc(Cl)ccc1O` (configuration not stated): the AC50 under setting [1] is 35.5 µM [falling, partial curve, poor fit].

Take `C[C@H](/C=C/[C@@]1(O)[C@H](C)C[C@H](O)CC1(C)C)O[C@@H]1O[C@H](CO)[C@@H](O)[C@H](O)[C@H]1O`: under setting [1], the AC50 is 29.1 µM [falling, partial curve, poor fit].

Take `Cc1ccc(NC(=O)CCNC(=O)c2ccccc2Cl)cc1S(=O)(=O)N1CCOCC1`: under setting [1], the AC50 is 20.6 µM [rising, partial curve].

For the molecule `Cc1cccn2c(=O)c3cc(C#N)c(=NC(=O)c4cccs4)n(CC(C)C)c3nc12`, the concentration at half-maximal activity (AC50) under setting [1] was 3.98 µM [falling, single point].

Take `COc1ccc(-c2cc(C(F)(F)F)n3nc(C(=O)NCCCn4ccnc4)cc3n2)cc1`: the AC50 is, setting by setting: under setting [1], 14.6 µM [rising, partial curve]; under setting [2], 18.4 µM [falling, partial curve].

Turning to `COc1ccc(CCN=Cc2ccccc2O)cc1OC`, under setting [1], the AC50 was 0.282 µM [rising, full curve, poor fit].

In the case of `Nc1ccc(C(=O)N/N=C/c2cn(Cc3ccc(F)cc3)c3ccccc23)cc1`, under setting [1], the half-maximal activity concentration (AC50) is 5.62 µM [falling, full curve].

As to `CCC(=O)Nc1ccc(-c2ccc(N3CCCCC3)nn2)cc1`, under setting [1], the AC50 is 20 µM [rising, single point].

`CN(C)c1ccc(C2CC(c3ccccc3)=Nc3nc(-c4ccccc4)cn32)cc1` (configuration not stated): the AC50 under setting [1] was 23.1 µM [falling, single point].

As to `C#CCOCCOCCOCCNc1nc(N2CCN(C(=O)Cn3cc(CCCN=C(N)N)nn3)CC2)nc(N2CCN(C(=O)[C@H]([C@@H](C)O)n3cc(CCCCN)nn3)CC2)n1`, the half-maximal activity concentration (AC50) under setting [1] is 0.731 µM [rising, full curve, poor fit].

Take `CCCc1nnc(NC(=O)c2cccc(OC)c2)s1`: the concentration at half-maximal activity (AC50) under setting [1] is 11.2 µM [falling, partial curve].

For `COc1cccc(NC2c3ccccc3C(=O)N2Cc2ccccc2Cl)c1` (configuration not stated), under setting [1], the concentration at half-maximal activity (AC50) was 35.5 µM [falling, single point].

For the molecule `Cc1cccc(C(=O)N(Cc2ccc(C)o2)C2CCS(=O)(=O)C2)c1` (configuration not stated), under setting [1], the AC50 was 0.398 µM [falling, full curve, poor fit].

With `O=C(CN1CCCCC1)NC(=O)NC1CCCC1`, under setting [1], the half-maximal activity concentration (AC50) was 7.08 µM [rising, partial curve].

As for `Cc1ccc(-n2nnnc2Sc2nc([N+](=O)[O-])nn2C)cc1`, the concentration at half-maximal activity (AC50) was 16.4 µM [falling, single point] under setting [1] and 25.9 µM [falling, single point] under setting [2].

Take `Cc1ccc(-n2cc(-c3ccccc3)c3c(NN4CCOCC4)ncnc32)cc1`: the concentration at half-maximal activity (AC50) under setting [1] is 20.6 µM [rising, partial curve, poor fit].

With `CC1=C(C)C(=O)C(N2CCOCC2)=CC1=O`, the concentration at half-maximal activity (AC50) under setting [1] was 32.6 µM [falling, single point].

With `COc1cccc(C(=O)Nc2cccc(C(=O)N3CCOCC3)c2)c1`, the AC50 under setting [1] is 2.91 µM [rising, single point].

In the case of `Cc1ccc(OCC(=O)NNC(=O)Cn2c(=O)cnc3ccccc32)cc1`, under setting [1], the AC50 was 5.17 µM [falling, partial curve].

With `O=C(NCCC(=O)N1CCCCC1)c1ccc(Br)cc1`, the AC50 under setting [1] is 5.01 µM [rising, single point].

Consider `CCNS(=O)(=O)c1ccc(Br)c(C(=O)OC(C)C(=O)NCC2CCCCC2)c1` (configuration not stated), for which the AC50 under setting [1] is 5.8 µM [rising, partial curve, poor fit].

Regarding `O=C(Nc1cnn(Cc2c(Cl)cccc2Cl)c1)c1ccc([N+](=O)[O-])cc1`, the concentration at half-maximal activity (AC50) under setting [1] was 0.251 µM [rising, partial curve, poor fit].

For `Cc1cc(C)c(C(CC(=O)c2cccs2)C(C#N)C#N)c(C)c1` (configuration not stated), the AC50 under setting [1] is 18.4 µM [falling, single point].

Turning to `CC1CN(S(=O)(=O)c2cccc(C(=O)N(CCc3ccccc3)Cc3ccccc3)c2)CC(C)O1` (configuration not stated), the AC50 under setting [1] is 29.1 µM [falling, single point].

`CCC(C)c1ccc(NC(=O)C/C(C)=N/NC(=O)c2cnccn2)cc1` (configuration not stated): the concentration at half-maximal activity (AC50) under setting [1] was 23.1 µM [falling, single point].

Take `Oc1ccc2oc3c(c2c1/C=N/n1cnnc1)CCCC3`: under setting [1], the AC50 was 35.5 µM [rising, partial curve, poor fit].

On to `CN(C)CCCN1c2ccccc2Sc2ccc(C(F)(F)F)cc21`, for which the half-maximal activity concentration (AC50) under setting [1] is 23.1 µM [falling, partial curve, poor fit].

In the case of `Nc1nc(-c2ccccc2)cs1`, the AC50 under setting [1] was 0.58 µM [rising, full curve, poor fit].

Regarding `CCN(C(=O)C1CCCN1S(=O)(=O)c1cccc2nsnc12)c1ccccc1` (configuration not stated), under setting [1], the AC50 is 20 µM [rising, single point].

Consider `CCOC(=O)C(CCCOc1ccc(C)cc1)C(=O)OCC`, for which, under setting [1], the AC50 is 0.651 µM [falling, full curve, poor fit].

Take `COc1ccc(C2C3=C(NCCN=C3c3ccccc3)C(=O)N2c2ccccc2)c(OC)c1` (configuration not stated): the concentration at half-maximal activity (AC50) under setting [1] was 22.4 µM [falling, partial curve, poor fit].

Take `O=C(c1ccncc1)N1CCN(c2ccc(F)cc2)CC1`: under setting [1], the AC50 was 2.91 µM [falling, single point].

With `COc1ccc(CCNC(=O)CN(c2cccc([N+](=O)[O-])c2)S(C)(=O)=O)cc1`, the concentration at half-maximal activity (AC50) under setting [1] is 6.31 µM [rising, partial curve, poor fit].

On to `COc1cccc2sc(N)nc12`, for which the AC50 under setting [1] was 5.8 µM [falling, partial curve].

For `Cc1cccc(C(=O)O/N=C(\N)c2ccccn2)c1`, the AC50 under setting [1] was 1.58 µM [falling, full curve].

On to `C=CCN(CC=C)C(=S)Nc1ccc2nsnc2c1`, for which the half-maximal activity concentration (AC50) under setting [1] was 35.5 µM [falling, single point].

Turning to `CCN1CCCC1CN(Cc1cc2ccc(C)cc2[nH]c1=O)C(=S)Nc1ccc(OC)cc1OC` (configuration not stated), under setting [1], the AC50 is 13 µM [rising, partial curve, poor fit].

`Cc1ccccc1CC(=O)N1CCN(C(=O)C2CCCO2)CC1` (configuration not stated): the AC50 under setting [1] was 3.16 µM [rising, partial curve, poor fit].

With `NS(=O)(=O)c1ccc(NC(=O)c2cccc3ccccc23)cc1`, the concentration at half-maximal activity (AC50) under setting [1] was 2 µM [falling, full curve].

Take `COc1ccc(N=c2oc3c(OC)cccc3cc2C(=O)NCc2ccco2)cc1OC`: the half-maximal activity concentration (AC50) under setting [1] is 32.6 µM [falling, partial curve, poor fit].

The record behind these values is PubChem BioAssay AID493014 (National Center for Advancing Translational Sciences (NCATS), 2011).
